Source: patent publication US9085541B2, “Process for producing imine compounds for combating invertebrate pests” (priority 2010, dated 2015)
Some results were stated once for a whole list of compounds, not compound by compound.

Tested on: tobacco budworm (Heliothis virescens)
Test: Tobacco budworm (Heliothis virescens) I: 96-well microtiter plates with insect diet and eggs, egg and larval mortality
Assay type: in vivo
Conditions: at 2500 ppm; sprayed onto insect diet; 5 days incubation; in comparison with untreated controls
Description: B.1 Tobacco Budworm (Heliothis virescens) I
For evaluating control of tobacco budworm (Heliothis virescens) the test unit consisted of 96-well-microtiter plates containing an insect diet and 15-25 H. virescens eggs. The compounds were formulated using a solution containing 75% v/v water and 25% v/v DMSO. Different concentrations of formulated compounds were sprayed onto the insect diet at 10 μl, using a custom built micro atomizer, at two replications. After application, microtiter plates are incubated at about 28±1° C. and about 80±5% relative humidity for 5 days. Egg and larval mortality is then visually assessed.

SMILES | mortality (egg and larval mortality, visually assessed)
CCNC(=O)NN=Cc1ccc(C2=NOC(c3cc(Cl)cc(Cl)c3)(C(F)(F)F)C2)cc1C(F)(F)F (centres unmarked) [Compound 2-3] | at least 75%
CCNC(=S)NN=Cc1ccc(C2=NOC(c3cc(Cl)cc(Cl)c3)(C(F)(F)F)C2)c(C)c1C (centres unmarked) [Compound 6-5] | at least 75%
CSCC(C)NC(=O)NN=Cc1ccc(C2=NOC(c3cc(Cl)cc(Cl)c3)(C(F)(F)F)C2)cc1Cl (centres unmarked) [Compound 4-33] | at least 75%
Cc1cc(C2=NOC(c3cc(Cl)cc(Cl)c3)(C(F)(F)F)C2)ccc1C=NNC(=O)NCC(=O)NC(C)C (racemic) [Compound 1-56] | at least 75%
COCCNC(=O)NN=Cc1ccc(C2=NOC(c3cc(Cl)cc(Cl)c3)(C(F)(F)F)C2)cc1C (centres unmarked) [Compound 1-13] | at least 75%
Cc1csc(NN=Cc2ccc(C3=NOC(c4cc(Cl)cc(Cl)c4)(C(F)(F)F)C3)cc2C)n1 (centres unmarked) [Compound 1-76] | at least 75%
COCCCNC(=O)NN=Cc1ccc(C2=NOC(c3cc(Cl)cc(Cl)c3)(C(F)(F)F)C2)cc1C (centres unmarked) [Compound 1-11] | at least 75%
CCNC(=O)NN=Cc1ccc(C2=NOC(c3cc(Cl)cc(Cl)c3)(C(F)(F)F)C2)c2ccccc12 (racemic) [Compound 10-3] | at least 75%
O=C(CNC(=O)NN=Cc1ccc(C2=NOC(c3cc(Cl)cc(Cl)c3)(C(F)(F)F)C2)cc1C(F)(F)F)NCC(F)(F)F (centres unmarked) [Compound 2-16] | at least 75%
O=C(NCCCn1ccnc1)NN=Cc1ccc(C2=NOC(c3cc(Cl)cc(Cl)c3)(C(F)(F)F)C2)cc1Cl (centres unmarked) [Compound 4-13] | at least 75%
Cc1nc(NN=Cc2ccc(C3=NOC(c4cc(Cl)cc(Cl)c4)(C(F)(F)F)C3)cc2Cl)sc1C (centres unmarked) [Compound 4-50] | at least 75%
CC(C)CNC(=O)NN=Cc1ccc(C2=NOC(c3cc(Cl)cc(Cl)c3)(C(F)(F)F)C2)cc1C#N (centres unmarked) [Compound 5-10] | at least 75%
C=CCNC(=O)NN=Cc1ccc(C2=NOC(c3cc(Cl)cc(Cl)c3)(C(F)(F)F)C2)cc1C (racemic) [Compound 1-62] | at least 75%
FC(F)(F)CNC(=S)NN=Cc1ccc(C2=NOC(c3cc(Cl)cc(Cl)c3)(C(F)(F)F)C2)cc1Cl (centres unmarked) [Compound 4-28] | at least 75%
CSCC(C)(C)NC(=O)NN=Cc1ccc(C2=NOC(c3cc(Cl)cc(Cl)c3)(C(F)(F)F)C2)cc1Cl (centres unmarked) [Compound 4-41] | at least 75%
CCNC(=S)NN=Cc1ccc(C2=NOC(c3cc(Cl)cc(Cl)c3)(C(F)(F)F)C2)cc1Cl (centres unmarked) [Compound 4-27] | at least 75%
CCNC(=O)CNC(=O)NN=Cc1ccc(C2=NOC(c3cc(Cl)cc(Cl)c3)(C(F)(F)F)C2)cc1C (racemic) [Compound 1-59] | at least 75%
CNC(=O)NN=Cc1ccc(C2=NOC(c3cc(Cl)cc(Cl)c3)(C(F)(F)F)C2)cc1Cl (centres unmarked) [Compound 4-4] | at least 75%
Cc1cc(C2=NOC(c3cc(Cl)cc(Cl)c3)(C(F)(F)F)C2)ccc1C=NNC(=O)NCC(F)F (centres unmarked) [Compound 1-33] | at least 75%
COc1cc(C2=NOC(c3cc(Cl)cc(Cl)c3)(C(F)(F)F)C2)ccc1C=NNC(=O)NC(C)c1ccccc1 (centres unmarked) [Compound 9-9] | at least 75%
Cc1cc(C2=NOC(c3cc(Cl)cc(Cl)c3)(C(F)(F)F)C2)ccc1C=NNC(=O)NCc1ccncn1 (racemic) [Compound 1-42] | at least 75%

SMILES | mortality (egg and larval mortality, visually assessed)
CCNC(=O)NN=Cc1ccc(C2=NOC(c3cc(Cl)cc(Cl)c3)(C(F)(F)F)C2)cc1OC (centres unmarked) [Compound 9-2] | at least 75%
COc1cc(C2=NOC(c3cc(Cl)cc(Cl)c3)(C(F)(F)F)C2)ccc1C=NNC(=O)NCC(F)(F)F (centres unmarked) [Compound 9-1] | at least 75%
CCNC(=O)NN=Cc1ccc(C2=NOC(c3cc(Cl)cc(Cl)c3)(C(F)(F)F)C2)c(C)c1C (centres unmarked) [Compound 6-2] | at least 75%
CCNC(=O)NN=Cc1ccc(C2=NOC(c3cc(Cl)cc(Cl)c3)(C(F)(F)F)C2)cc1Cl (centres unmarked) [Compound 4-5] | at least 75%
Cc1cc(C2=NOC(c3cc(Cl)cc(Cl)c3)(C(F)(F)F)C2)ccc1C=NNc1nc(C(F)(F)F)cs1 (centres unmarked) [Compound 1-91] | at least 75%
Cc1cc(C2=NOC(c3cc(Cl)cc(Cl)c3)(C(F)(F)F)C2)ccc1C=NNc1nc(-c2ccccc2)cs1 (centres unmarked) [Compound 1-93] | at least 75%
COc1cc(C2=NOC(c3cc(Cl)cc(Cl)c3)(C(F)(F)F)C2)ccc1C=NNC(=O)NCCOc1ccccc1 (centres unmarked) [Compound 9-7] | at least 75%
O=C(NCCSC(F)(F)F)NN=Cc1ccc(C2=NOC(c3cc(Cl)cc(Cl)c3)(C(F)(F)F)C2)cc1Cl (centres unmarked) [Compound 4-22] | at least 75%
Cc1cc(C2=NOC(c3cc(Cl)cc(Cl)c3)(C(F)(F)F)C2)ccc1C=NNC(N)=S (centres unmarked) [Compound 1-73] | at least 75%
CC(C)CNC(=O)NN=Cc1ccc(C2=NOC(c3cc(Cl)cc(Cl)c3)(C(F)(F)F)C2)cc1C(F)(F)F (centres unmarked) [Compound 2-13] | at least 75%
CNC(=O)NN=Cc1ccc(C2=NOC(c3cc(Cl)cc(Cl)c3)(C(F)(F)F)C2)c(C)c1C (centres unmarked) [Compound 6-3] | at least 75%
Cc1cc(C2=NOC(c3cc(F)c(F)c(F)c3)(C(F)(F)F)C2)ccc1C=NNC(=O)NCC1CC1 (centres unmarked) [Compound 7-2] | at least 75%
COCCNC(=O)NN=Cc1ccc(C2=NOC(c3cc(Cl)cc(Cl)c3)(C(F)(F)F)C2)cc1Cl (centres unmarked) [Compound 4-20] | at least 75%
CCNC(=O)NN=Cc1ccc(C2=NOC(c3cc(Cl)cc(Cl)c3)(C(F)(F)F)C2)cc1C#N (centres unmarked) [Compound 5-3] | at least 75%
Cc1cc(C2=NOC(c3cc(Cl)cc(Cl)c3)(C(F)(F)F)C2)ccc1C=NNC(=O)NC(C)C1CC1 (centres unmarked) [Compound 1-74] | at least 75%
CNC(=O)NN=Cc1ccc(C2=NOC(c3cc(Cl)cc(Cl)c3)(C(F)(F)F)C2)cc1C(F)(F)F (centres unmarked) [Compound 2-2] | at least 75%
Cc1cc(C2=NOC(c3cc(Cl)cc(Cl)c3)(C(F)(F)F)C2)ccc1C=NNC(=O)NCC1CCCO1 (centres unmarked) [Compound 1-10] | at least 75%
CC(C)CCNC(=O)NN=Cc1ccc(C2=NOC(c3cc(Cl)cc(Cl)c3)(C(F)(F)F)C2)cc1Cl (centres unmarked) [Compound 4-6] | at least 75%
Cc1cc(C2=NOC(c3cc(Cl)cc(Cl)c3)(C(F)(F)F)C2)ccc1C=NNC(=O)NCC(=O)NCC(F)(F)F (racemic) [Compound 1-34] | at least 75%
Cc1cc(C2=NOC(c3cc(Cl)cc(Cl)c3)(C(F)(F)F)C2)ccc1C=NNC(=O)NCCc1ccccn1 (centres unmarked) [Compound 1-9] | at least 75%
